Some of the results follow.

The chains behind the UniProt entries cited, without tags or fusion partners. Where a name states a change or a piece, a line headed by the entry shows the natural chain unless it says otherwise.
UniProt O00151: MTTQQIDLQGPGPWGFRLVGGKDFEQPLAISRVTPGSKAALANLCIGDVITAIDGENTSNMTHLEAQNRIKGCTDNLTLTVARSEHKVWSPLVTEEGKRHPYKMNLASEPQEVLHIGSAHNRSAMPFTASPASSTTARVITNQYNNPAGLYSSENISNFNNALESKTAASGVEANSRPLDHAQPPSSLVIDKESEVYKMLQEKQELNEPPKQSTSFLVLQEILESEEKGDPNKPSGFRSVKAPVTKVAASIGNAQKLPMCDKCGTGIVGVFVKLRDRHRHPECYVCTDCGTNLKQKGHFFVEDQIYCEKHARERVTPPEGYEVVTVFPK
UniProt P50479: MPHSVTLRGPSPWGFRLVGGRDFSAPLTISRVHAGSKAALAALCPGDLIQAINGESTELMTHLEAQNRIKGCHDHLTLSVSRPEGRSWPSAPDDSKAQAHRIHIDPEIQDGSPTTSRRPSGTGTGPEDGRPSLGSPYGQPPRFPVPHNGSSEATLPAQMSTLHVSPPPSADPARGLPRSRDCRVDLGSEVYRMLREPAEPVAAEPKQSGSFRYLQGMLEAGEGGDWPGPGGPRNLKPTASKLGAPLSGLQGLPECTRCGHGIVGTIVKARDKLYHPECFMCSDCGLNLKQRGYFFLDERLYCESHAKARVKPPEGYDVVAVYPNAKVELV
UniProt Q13177, whole entry, looked up: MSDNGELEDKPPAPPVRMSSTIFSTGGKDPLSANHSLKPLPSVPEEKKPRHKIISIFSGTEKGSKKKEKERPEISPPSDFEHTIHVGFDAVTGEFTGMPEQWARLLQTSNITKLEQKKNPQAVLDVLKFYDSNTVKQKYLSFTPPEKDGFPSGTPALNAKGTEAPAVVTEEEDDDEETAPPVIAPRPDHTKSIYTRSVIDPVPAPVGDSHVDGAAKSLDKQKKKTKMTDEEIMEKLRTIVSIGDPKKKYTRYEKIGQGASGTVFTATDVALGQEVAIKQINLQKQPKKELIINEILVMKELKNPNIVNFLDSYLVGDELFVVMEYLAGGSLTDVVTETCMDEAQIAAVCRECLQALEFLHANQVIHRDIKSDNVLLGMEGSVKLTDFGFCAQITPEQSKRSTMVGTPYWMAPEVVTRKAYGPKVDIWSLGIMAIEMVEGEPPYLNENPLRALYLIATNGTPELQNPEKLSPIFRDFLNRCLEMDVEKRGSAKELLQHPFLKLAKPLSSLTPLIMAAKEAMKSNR
UniProt Q6P996: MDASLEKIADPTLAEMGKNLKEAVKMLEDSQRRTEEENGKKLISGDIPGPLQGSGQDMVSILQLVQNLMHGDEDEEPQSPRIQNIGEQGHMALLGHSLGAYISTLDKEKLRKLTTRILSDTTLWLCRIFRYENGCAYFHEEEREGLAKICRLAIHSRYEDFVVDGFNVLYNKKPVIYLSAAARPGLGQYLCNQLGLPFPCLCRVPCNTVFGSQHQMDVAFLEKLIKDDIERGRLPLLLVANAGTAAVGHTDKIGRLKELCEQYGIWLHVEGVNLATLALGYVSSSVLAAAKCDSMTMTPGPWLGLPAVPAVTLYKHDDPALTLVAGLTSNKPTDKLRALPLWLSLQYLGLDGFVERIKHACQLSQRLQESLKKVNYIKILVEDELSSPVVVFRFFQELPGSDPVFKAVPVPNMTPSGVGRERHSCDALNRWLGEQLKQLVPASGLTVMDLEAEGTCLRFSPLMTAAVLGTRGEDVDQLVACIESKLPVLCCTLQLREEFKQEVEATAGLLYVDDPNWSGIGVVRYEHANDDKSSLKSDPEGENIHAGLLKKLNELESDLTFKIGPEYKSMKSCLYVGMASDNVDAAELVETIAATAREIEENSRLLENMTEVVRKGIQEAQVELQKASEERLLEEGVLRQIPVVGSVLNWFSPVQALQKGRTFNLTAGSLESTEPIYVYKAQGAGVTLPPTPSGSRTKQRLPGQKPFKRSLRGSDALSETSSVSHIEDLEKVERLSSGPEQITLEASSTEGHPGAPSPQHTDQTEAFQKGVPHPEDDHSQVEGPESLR
UniProt Q96RG2: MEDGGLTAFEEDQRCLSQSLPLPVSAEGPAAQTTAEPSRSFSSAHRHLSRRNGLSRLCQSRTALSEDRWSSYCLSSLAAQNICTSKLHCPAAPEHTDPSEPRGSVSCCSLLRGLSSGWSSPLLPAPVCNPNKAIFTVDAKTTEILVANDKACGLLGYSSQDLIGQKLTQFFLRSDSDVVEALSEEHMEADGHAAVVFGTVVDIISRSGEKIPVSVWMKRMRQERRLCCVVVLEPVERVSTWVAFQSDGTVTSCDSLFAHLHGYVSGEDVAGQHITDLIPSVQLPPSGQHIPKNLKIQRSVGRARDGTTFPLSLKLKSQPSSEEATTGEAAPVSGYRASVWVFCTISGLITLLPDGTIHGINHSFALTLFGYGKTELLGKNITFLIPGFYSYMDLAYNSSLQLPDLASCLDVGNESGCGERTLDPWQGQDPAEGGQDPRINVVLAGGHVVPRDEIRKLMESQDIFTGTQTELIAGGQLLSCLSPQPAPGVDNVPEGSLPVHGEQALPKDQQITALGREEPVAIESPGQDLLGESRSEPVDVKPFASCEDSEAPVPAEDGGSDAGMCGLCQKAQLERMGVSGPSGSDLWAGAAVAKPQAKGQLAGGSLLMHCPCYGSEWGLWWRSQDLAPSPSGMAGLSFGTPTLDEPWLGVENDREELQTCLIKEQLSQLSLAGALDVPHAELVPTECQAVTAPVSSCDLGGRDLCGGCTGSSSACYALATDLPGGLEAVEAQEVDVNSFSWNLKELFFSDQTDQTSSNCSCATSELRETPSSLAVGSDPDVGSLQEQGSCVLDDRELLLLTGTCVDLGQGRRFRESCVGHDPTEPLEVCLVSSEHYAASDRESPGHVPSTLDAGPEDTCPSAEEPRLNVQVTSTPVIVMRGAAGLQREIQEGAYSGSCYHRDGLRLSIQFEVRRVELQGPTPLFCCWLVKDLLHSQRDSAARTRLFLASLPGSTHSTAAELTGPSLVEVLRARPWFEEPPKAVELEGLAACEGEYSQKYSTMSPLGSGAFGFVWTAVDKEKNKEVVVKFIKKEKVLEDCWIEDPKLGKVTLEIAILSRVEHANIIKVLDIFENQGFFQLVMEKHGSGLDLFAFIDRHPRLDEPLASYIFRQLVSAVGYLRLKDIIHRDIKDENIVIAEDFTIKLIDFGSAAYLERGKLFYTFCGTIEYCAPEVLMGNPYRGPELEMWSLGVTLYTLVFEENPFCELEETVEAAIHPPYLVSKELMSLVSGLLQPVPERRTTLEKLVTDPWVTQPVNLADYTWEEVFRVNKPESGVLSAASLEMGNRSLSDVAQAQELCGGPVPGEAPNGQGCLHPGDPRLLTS
UniProt Q9UHG3: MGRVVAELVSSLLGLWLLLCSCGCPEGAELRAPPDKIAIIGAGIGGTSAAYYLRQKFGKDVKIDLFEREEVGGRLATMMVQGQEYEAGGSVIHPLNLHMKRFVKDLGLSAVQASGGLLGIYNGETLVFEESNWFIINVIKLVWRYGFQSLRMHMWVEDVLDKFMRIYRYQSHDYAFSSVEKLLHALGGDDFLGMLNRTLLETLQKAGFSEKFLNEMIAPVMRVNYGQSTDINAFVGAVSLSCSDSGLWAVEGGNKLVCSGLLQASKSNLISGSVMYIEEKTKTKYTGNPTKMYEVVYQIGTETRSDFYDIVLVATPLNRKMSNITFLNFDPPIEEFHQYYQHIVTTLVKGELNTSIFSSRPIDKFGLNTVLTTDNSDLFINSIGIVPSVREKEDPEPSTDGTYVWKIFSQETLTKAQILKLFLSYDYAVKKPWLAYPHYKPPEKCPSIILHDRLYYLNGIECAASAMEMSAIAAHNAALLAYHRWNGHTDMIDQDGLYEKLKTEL
UniProt Q96GD0: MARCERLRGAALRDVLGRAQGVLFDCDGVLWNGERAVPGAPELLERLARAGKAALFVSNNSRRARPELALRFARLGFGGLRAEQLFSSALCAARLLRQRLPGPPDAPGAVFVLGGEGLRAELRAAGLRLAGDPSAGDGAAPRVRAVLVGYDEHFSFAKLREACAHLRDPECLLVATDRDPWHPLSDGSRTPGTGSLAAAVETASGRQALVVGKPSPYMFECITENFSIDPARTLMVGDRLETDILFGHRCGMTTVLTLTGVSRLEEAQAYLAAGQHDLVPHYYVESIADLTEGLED
UniProt P56645: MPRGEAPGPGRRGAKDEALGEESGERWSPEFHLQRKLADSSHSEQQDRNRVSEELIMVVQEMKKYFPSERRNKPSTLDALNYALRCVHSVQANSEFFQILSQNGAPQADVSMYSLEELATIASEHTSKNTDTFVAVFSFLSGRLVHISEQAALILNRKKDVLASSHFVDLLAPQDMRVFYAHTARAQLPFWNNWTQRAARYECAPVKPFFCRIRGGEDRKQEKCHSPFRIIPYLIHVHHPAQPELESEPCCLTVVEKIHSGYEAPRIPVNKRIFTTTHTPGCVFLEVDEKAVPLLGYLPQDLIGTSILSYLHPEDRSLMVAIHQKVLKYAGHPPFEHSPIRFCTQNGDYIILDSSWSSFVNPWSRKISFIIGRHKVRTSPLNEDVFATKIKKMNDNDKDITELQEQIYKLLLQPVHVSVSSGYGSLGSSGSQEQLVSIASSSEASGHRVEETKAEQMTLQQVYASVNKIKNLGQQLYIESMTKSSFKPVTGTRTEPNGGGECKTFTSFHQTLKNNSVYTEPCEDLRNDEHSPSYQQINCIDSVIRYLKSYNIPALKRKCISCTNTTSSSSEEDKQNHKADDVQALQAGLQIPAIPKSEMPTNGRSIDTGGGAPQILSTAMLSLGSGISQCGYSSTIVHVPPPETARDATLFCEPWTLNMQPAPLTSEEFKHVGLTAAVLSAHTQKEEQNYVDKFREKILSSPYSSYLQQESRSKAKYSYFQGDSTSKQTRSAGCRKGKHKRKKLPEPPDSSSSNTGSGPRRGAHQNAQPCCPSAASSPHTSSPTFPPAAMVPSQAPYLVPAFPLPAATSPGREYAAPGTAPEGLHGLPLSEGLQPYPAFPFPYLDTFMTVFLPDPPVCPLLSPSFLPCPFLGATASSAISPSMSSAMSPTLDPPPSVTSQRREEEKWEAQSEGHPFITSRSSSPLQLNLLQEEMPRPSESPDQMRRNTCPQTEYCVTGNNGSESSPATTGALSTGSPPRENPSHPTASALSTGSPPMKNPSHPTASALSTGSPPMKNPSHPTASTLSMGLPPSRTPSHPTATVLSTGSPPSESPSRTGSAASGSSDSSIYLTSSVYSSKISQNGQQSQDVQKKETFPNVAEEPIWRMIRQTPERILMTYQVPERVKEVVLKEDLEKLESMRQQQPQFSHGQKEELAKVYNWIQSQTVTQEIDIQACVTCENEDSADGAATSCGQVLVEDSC
UniProt Q99497, whole entry, looked up: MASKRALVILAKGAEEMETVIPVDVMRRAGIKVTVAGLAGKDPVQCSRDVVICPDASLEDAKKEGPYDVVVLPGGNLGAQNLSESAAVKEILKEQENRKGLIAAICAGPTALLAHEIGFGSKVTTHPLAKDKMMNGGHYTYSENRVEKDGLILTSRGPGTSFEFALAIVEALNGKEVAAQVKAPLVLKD
UniProt Q9NWT1: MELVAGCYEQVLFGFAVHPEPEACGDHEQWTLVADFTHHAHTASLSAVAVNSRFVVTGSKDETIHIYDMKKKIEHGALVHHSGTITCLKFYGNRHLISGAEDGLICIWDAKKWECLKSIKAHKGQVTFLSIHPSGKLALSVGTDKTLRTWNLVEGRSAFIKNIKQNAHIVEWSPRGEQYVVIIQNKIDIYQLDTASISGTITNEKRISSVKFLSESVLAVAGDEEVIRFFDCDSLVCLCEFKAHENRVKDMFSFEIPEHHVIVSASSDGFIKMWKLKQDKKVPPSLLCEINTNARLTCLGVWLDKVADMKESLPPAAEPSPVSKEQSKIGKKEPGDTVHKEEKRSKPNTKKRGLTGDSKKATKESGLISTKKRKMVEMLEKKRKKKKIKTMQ
UniProt Q9NUG6, whole entry, looked up: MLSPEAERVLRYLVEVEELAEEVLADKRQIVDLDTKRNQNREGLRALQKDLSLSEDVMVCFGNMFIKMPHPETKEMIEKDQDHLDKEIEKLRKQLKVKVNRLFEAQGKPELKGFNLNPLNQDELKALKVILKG
UniProt O00764: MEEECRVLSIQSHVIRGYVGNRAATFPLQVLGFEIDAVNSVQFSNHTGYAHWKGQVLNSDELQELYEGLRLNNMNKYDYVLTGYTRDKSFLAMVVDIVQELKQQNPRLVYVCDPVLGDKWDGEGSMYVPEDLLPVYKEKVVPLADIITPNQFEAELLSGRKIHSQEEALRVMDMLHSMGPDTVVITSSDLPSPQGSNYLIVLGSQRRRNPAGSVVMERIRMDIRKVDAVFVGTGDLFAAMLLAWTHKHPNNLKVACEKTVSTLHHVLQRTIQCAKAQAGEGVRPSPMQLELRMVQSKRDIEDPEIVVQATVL
UniProt P22061: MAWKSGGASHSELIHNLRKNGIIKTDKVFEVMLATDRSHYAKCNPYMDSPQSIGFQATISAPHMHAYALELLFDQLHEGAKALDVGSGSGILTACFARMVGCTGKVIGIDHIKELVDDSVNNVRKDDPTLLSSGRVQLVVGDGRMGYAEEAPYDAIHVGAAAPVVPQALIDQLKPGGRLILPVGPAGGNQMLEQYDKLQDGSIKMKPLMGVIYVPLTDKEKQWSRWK

Compound in this test: Cc1ncc(-c2ccnc(Nc3ccc(S(C)(=O)=O)cc3)n2)n1C(C)C
Briefly: log2 fold change, soluble protein after heating vs DMSO (PISA); higher = thermal stabilisation; K562 cells, 10 uM, 30 min; active = over 0.2 and 3.5 SD of the protein, either way, in both replicates (recomputed). The method, boiled down:
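K562 cells (2×10^6 cells/mL) were treated with 10 μM compound for 30 min, and aliquots were heated for 3 min over 48°C-58°C. Pooled aliquots were extracted in PBS with 0.5% NP-40 at 4°C, and the supernatant after 21,000xg for 90 min was measured by TMTpro 16plex LC-MS/MS with channel sums equalised. Reported thermal stability, relative to control samples and from duplicates, is a log2 fold change.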
Regarding PEX12 (UniProt O00623), the log2 fold change is inactive: -0.035.
The result for PDHX (UniProt O00330) reads inactive: -0.058.
The result for PANK4 (UniProt Q9NVE7) reads inactive: 0.072; that for PDSS1 (UniProt Q5T2R2), inactive: -0.042; that for PDLIM1 (UniProt O00151), inactive: -0.01.
The result for PDLIM4 (UniProt P50479) reads inactive: -0.009; that for PAK2 (UniProt Q13177), inactive: 0.02; that for PACSIN2 (UniProt Q9UNF0), inactive: -0.093.
On to PDXDC1 (UniProt Q6P996), for which the log2 fold change is inactive: -0.086.
The result for PASK (UniProt Q96RG2) reads inactive: -0.031.
Turning to PARD6B (UniProt Q9BYG5), the log2 fold change was inactive: -0.021.
As for PEBP1 (UniProt P30086), the log2 fold change was inactive: 0.005.
Take PCYOX1 (UniProt Q9UHG3): the log2 fold change was inactive: -0.019.
Regarding PDXP (UniProt Q96GD0), the log2 fold change was inactive: -0.03.
The result for PER3 isoform 2 (UniProt P56645) reads inactive: 0.053.
Regarding PEX1 (UniProt O43933), the log2 fold change was inactive: -0.034.
Take PARK7 (UniProt Q99497): the log2 fold change was inactive: -0.01.
With PAK1IP1 (UniProt Q9NWT1), the log2 fold change was inactive: 0.046.
In the case of PES1 (UniProt O00541) it was inactive: 0.079.
The result for PDRG1 (UniProt Q9NUG6) reads inactive: -0.002.
For PDXK (UniProt O00764), the log2 fold change was inactive: -0.01.
In the case of PABPC4 isoform 3 (UniProt Q13310) it was inactive: -0.01.
The result for PCMT1 isoform 2 (UniProt P22061) reads inactive: -0.009.

These data come from the supplement of paper PMC10849652.
